No constants are given. Whether binding was seen depends on the method and setting. Binding seen in cells or lysates may run through a third protein. A yes stands for co-enrichment or nearness to the bait. Other partners may have been found. Blank lines part the entries; values can stand above or below the binder they belong to.
Target: T1, his-tagged rhTLR4/MD2 (human, UniProt O00206 24-631; Q9Y6Y9 19-160)
T1 construct: Bought recombinant human complex (carrier free, R&D SYSTEMS), his-tagged; In the pull-down it was captured by anti-His antibody on Protein A/G agarose; in the ELISA it was coated on the plate; also called TLR4/MD2 complex; TRLR4/MD2
Assay: pull-down on beads carrying TLR4/MD2, MALDI-TOF mass spectrometry of the eluate
Description: Anti-His antibody (5 μL, 0.5 mg/mL, Invivogen) and his-tagged rhTLR4/MD2 (5 μL, 1 mg/mL, carrier free, R&D SYSTEMS) were mixed and coupled to Protein A/G Agarose (50 μl, Pierce, Thermo Scientific). Trypsin digested peptides of S100A9 were added for 3 h at 4° C. in the presence of 1 mM Calcium. After washing of the beads in HBS/1 mM Ca-buffer for three times bound peptidic fragments were eluted by addition of 10 mM TRIS/2 mM EDTA-buffer and analysed by ESI-QIT- and MALDI-TOF-mass spectrometry. Identical experiments were performed to analyze the binding of the chemical synthesized peptides of S100A9 (aa63-79), S100A8 (aa55-71) and the corresponding control peptides aa63-79 AS and aa55-71 A3.

Chains of the proteins cited; added tags and fusions are not shown. Lines headed by an entry give the natural chain unless they say otherwise; changes in a name come on top.
UniProt O00206: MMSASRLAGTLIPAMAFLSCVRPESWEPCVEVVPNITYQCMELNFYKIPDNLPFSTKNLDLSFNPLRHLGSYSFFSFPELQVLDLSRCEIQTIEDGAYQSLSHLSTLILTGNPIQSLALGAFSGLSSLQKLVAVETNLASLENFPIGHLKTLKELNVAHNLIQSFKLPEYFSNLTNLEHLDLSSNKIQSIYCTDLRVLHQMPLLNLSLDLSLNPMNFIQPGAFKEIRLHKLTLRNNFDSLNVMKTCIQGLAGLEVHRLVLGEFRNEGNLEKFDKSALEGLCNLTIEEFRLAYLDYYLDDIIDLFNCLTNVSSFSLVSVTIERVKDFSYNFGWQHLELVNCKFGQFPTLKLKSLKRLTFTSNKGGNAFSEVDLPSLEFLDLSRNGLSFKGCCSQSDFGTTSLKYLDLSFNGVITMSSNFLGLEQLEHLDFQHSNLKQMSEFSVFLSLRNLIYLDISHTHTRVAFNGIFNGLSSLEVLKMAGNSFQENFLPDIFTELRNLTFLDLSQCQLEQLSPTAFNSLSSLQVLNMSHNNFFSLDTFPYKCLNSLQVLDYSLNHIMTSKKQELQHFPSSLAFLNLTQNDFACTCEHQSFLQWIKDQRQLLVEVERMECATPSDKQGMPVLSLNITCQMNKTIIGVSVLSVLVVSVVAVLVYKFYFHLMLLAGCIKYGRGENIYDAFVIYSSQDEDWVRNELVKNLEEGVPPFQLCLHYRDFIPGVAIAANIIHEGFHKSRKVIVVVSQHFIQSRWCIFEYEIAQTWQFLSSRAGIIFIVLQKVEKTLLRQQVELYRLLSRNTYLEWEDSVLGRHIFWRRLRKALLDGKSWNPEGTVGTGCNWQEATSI

binding: binds
B1: synthetic peptide corresponding to amino acid positions 63-79 of S100A9 (…) (peptide)
peptide: MEDLDTNADKQLSFEEF

binding: binds
B2: synthetic peptide having the amino acid sequence of positions 55-71 of human S100A8 (…) (peptide)
peptide: FKELDINTDGAVNFQEF
